Experimental data reported in the supplement of paper PMC10470496.
Where a name gives a salt, the structure may show the parent alone. Some of the results follow. Single values are uncertain, as repeats are few or missing.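 Three clinical Candida auris isolates (clades III, IV and I) from the CDC resistance isolate bank were grown in RPMI-1640 at 35°C. Growth was background-corrected OD600 relative to same-plate vehicle-only wells. Hits required over 50% inhibition in at least two strains and a plate-corrected B-score above 0.1.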

Tested on: C. auris AR-386
Test: growth relative to vehicle control (OD600 ratio) (fraction); higher = less inhibition
Conditions: 1 µM; 24 h

Row | Compound | growth
1 | Cc1cc(NS(=O)(=O)c2ccc(N)cc2)no1 [Sulfamethoxazole] | 1.13
2 | NCc1ccc(S(N)(=O)=O)cc1 [Mafenide hydrochloride] | 1.27
3 | O=c1[nH]cnc2c1ncn2[C@@H]1O[C@H](CO)[C@@H](O)[C@H]1O [Inosine] | 1.12
4 | Cc1nc(-c2ccc(OCC(C)C)c(C#N)c2)sc1C(=O)O [Febuxostat] | 1.33
5 | CCc1c2c(nc3ccc(OC(=O)N4CCC(N5CCCCC5)CC4)cc13)-c1cc3c(c(=O)n1C2)COC(=O)[C@]3(O)CC [Irinotecan HCl Trihydrate] | 0.95
6 | C[N+](C)(C)CCOC(N)=O [Carbachol] | 1.01
7 | NCCC(O)(P(=O)(O)O)P(=O)(O)O [Pamidronate Disodium] | 0.66
8 | Clc1ccc(COC(Cn2ccnc2)c2ccc(Cl)cc2Cl)c(Cl)c1 (centres undefined) [Miconazole] | 0.66
9 | CC(C)(C)c1nc(-c2cccc(NS(=O)(=O)c3c(F)cccc3F)c2F)c(-c2ccnc(N)n2)s1 | 0.94
10 | CCCc1nc(C(C)(C)O)c(C(=O)OCc2oc(=O)oc2C)n1Cc1ccc(-c2ccccc2-c2nnn[nH]2)cc1 [Olmesartan Medoxomil] | 1.09
11 | Cc1ccsc1C(=CCCN1CCC[C@@H](C(=O)O)C1)c1sccc1C [Tiagabine] | 0.94
12 | NS(=O)(=O)c1cc2c(cc1Cl)N=C(CSCc1ccccc1)NS2(=O)=O [Benzthiazide] | 0.87
13 | Cc1nc(C(=O)NCC(=O)O)c(O)c2ccc(Oc3ccccc3)cc12 [Roxadustat (FG-4592)] | 0.53
14 | C=C1CC[C@H](O)C/C1=C/C=C1\CCC[C@]2(C)[C@@H]([C@H](C)CCCC(C)C)CC[C@@H]12 [Vitamin D3] | 1.06
15 | CCOc1cc(N)c(Cl)cc1C(=O)NCC1CN(Cc2ccc(F)cc2)CCO1 (centres undefined) [Mosapride Citrate] | 1.02
16 | CC(CN(C)C)CN1c2ccccc2CCc2ccccc21 (centres undefined) [Trimipramine Maleate] | 1.09
17 | Cc1ccc(-c2cc(C(F)(F)F)nn2-c2ccc(S(N)(=O)=O)cc2)cc1 [Celecoxib] | 0.66
18 | Cc1cc(C2CCCCC2)n(O)c(=O)c1 [Ciclopirox ethanolamine] | 0.03
19 | Cc1cnc(NC(=O)C2=C(O)c3ccccc3S(=O)(=O)N2C)s1 [Meloxicam] | 1.28
20 | O=c1oc2c(O)c(O)cc3c(=O)oc4c(O)c(O)cc1c4c23 [Ellagic acid] | 1.16

Row | Compound | growth
21 | Nc1c(CC(=O)O)cccc1C(=O)c1ccc(Br)cc1 [Bromfenac Sodium] | 0.82
22 | O=C(O)c1cc(-c2ccccc2)nc2ccccc12 [Cinchophen] | 0.88
23 | CC1(C)S[C@@H]2[C@H](NC(=O)COc3ccccc3)C(=O)N2[C@H]1C(=O)O [Penicillin V potassium salt] | 0.81
24 | CN(C)C(=O)COC(=O)Cc1ccc(OC(=O)c2ccc(NC(=N)N)cc2)cc1 [Camostat Mesilate] | 1.01
25 | CCOC(=O)c1ccc(N)cc1 [Benzocaine] | 0.57
26 | COc1ccc2[nH]c([S+]([O-])Cc3ncc(C)c(OC)c3C)nc2c1 (centres undefined) [Omeprazole] | 1.24
27 | Nc1nc(NC2CC2)c2ncn([C@H]3C=C[C@@H](CO)C3)c2n1 [Abacavir sulfate] | 0.78
28 | CCc1ccc(Cc2ccc3c(c2)[C@]2(OC3)O[C@H](CO)[C@@H](O)[C@H](O)[C@H]2O)cc1 [Tofogliflozin(CSG 452)] | 0.76
29 | CC(=O)OCC(=O)NCCCOc1cccc(CN2CCCCC2)c1 [Roxatidine Acetate HCl] | 0.97
30 | CC(C)C[C@H](NC(=O)[C@@H](NC(=O)c1cccc(-c2ccccc2)n1)[C@@H](C)O)B(O)O | 1.07
31 | NC(=O)c1ncn([C@@H]2O[C@H](CO)[C@@H](O)[C@H]2O)c1O [Mizoribine] | 1.04
32 | CCN(CC)CC(=O)Nc1c(C)cccc1C [Lidocaine hydrochloride] | 0.91
33 | C=C1c2cccc(O)c2C(=O)C2=C(O)[C@]3(O)C(=O)C(C(N)=O)=C(O)[C@@H](N(C)C)[C@@H]3[C@@H](O)[C@H]12 [Methacycline HCl] | 1.08
34 | CCCCN1CCCC[C@H]1C(=O)Nc1c(C)cccc1C [Levobupivacaine HCl] | 1.23
35 | CCC[C@H](NC(=O)[C@@H]1[C@H]2CCC[C@H]2CN1C(=O)[C@@H](NC(=O)[C@@H](NC(=O)c1cnccn1)C1CCCCC1)C(C)(C)C)C(=O)C(=O)NC1CC1 [Telaprevir (VX-950)] | 1.14
36 | C[C@H]1COc2c(N3CCN(C)CC3)c(F)cc3c(=O)c(C(=O)O)cn1c23 [Levofloxacin] | 0.94
37 | CC(C)CN(C[C@@H](O)[C@H](Cc1ccccc1)NC(=O)O[C@H]1CO[C@H]2OCC[C@H]21)S(=O)(=O)c1ccc(N)cc1 [Darunavir Ethanolate] | 1.02
38 | Oc1ccc(O)cc1 [Hydroquinone] | 0.96
39 | CCCCCCCCCCCCCCCC[N+](C)(C)C [Cetrimonium Bromide (CTAB)] | 1

Quoted from the listing.
growth, CC(C)C[C@H](NC(=O)[C@@H](NC(=O)c1cccc(-c2ccccc2)n1)[C@@H](C)O)B(O)O reads 1.07
growth, Cc1cc(NS(=O)(=O)c2ccc(N)cc2)no1 [Sulfamethoxazole] reads 1.13
